In the supplement of paper PMC4604168 (melanoma cell lines):
The list shows a part of the results. Many values rest on one well or one pass, so single values are uncertain.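 Cells were imaged in 1,536-well plates, and nuclei stained with an antibody against cleaved PARP were counted against all DNA-stained nuclei to give the apoptosis fraction. Screening doses were chosen to leave most cells alive, and resting and induced cleaved-PARP levels differ strongly between cell lines.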

How the values were obtained:
Assay in all cases: cleaved PARP positive nuclei fraction relative to DMSO control; melanoma cells; higher = more apoptosis
Conditions in all cases: library dose: low library concentration; 72 h
501Mel = test system: 501Mel
A101D = test system: A101D
A2058 = test system: A2058
C32 = test system: C32
CBRC008 = test system: CBRC008 (line from a melanoma biopsy)
CBRC014 = test system: CBRC014 (line from a melanoma biopsy)
CBRC016 = test system: CBRC016 (line from a melanoma biopsy)
CBRC017 = test system: CBRC017 (line from a melanoma biopsy)
COLO792 = test system: COLO792
COLO800 = test system: COLO800
COLO829 = test system: COLO829
G361 = test system: G361
IPC-298 = test system: IPC-298
IST-MEL1 = test system: IST-MEL1
LB2518-MEL = test system: LB2518-MEL
LOXIMVI = test system: LOXIMVI

Row | Compound | cleaved PARP positive nuclei fraction (501Mel) [%] | cleaved PARP positive nuclei fraction (A101D) [%] | cleaved PARP positive nuclei fraction (A2058) [%] | cleaved PARP positive nuclei fraction (C32) [%] | cleaved PARP positive nuclei fraction (CBRC008) [%] | cleaved PARP positive nuclei fraction (CBRC014) [%] | cleaved PARP positive nuclei fraction (CBRC016) [%] | cleaved PARP positive nuclei fraction (CBRC017) [%] | cleaved PARP positive nuclei fraction (COLO792) [%] | cleaved PARP positive nuclei fraction (COLO800) [%] | cleaved PARP positive nuclei fraction (COLO829) [%] | cleaved PARP positive nuclei fraction (G361) [%] | cleaved PARP positive nuclei fraction (IPC-298) [%] | cleaved PARP positive nuclei fraction (IST-MEL1) [%] | cleaved PARP positive nuclei fraction (LB2518-MEL) [%] | cleaved PARP positive nuclei fraction (LOXIMVI) [%]
1 | Nc1nc(F)nc2c1ncn2[C@@H]1O[C@H](CO)[C@@H](O)[C@@H]1O [fludarabine] + COc1ccc(-c2ccc3c(N4CCOCC4)nc(N4C[C@@H](C)O[C@@H](C)C4)nc3n2)cc1CO [KU0063794] (first compound 0.2 µM, partner dose 0.02 µM) | 1900 | 667 | 308 | 309 | 28.8 | 101 | 76.8 | 182 | 93.2 | 38.2 | 126 | 71.2 | 86.8 | 124 | 68.8 | 75.1
2 | C=C(c1ccc(C(=O)O)cc1)c1cc2c(cc1C)C(C)(C)CCC2(C)C [Bexarotene] + COC(=O)c1sccc1S(=O)(=O)Nc1ccc(Nc2ccccc2)cc1OC [GSK0660] (first compound 2 µM, partner dose 1 µM) | 80.8 | 19.6 | 111 | 110 | 126 | 152 | 140 | 236 | 87.5 | 20.2 | 96.5 | 184 | 121 | 134 | 69.1 | 71.7
3 | Nc1ccn([C@@H]2O[C@H](CO)[C@@H](O)C2(F)F)c(=O)n1 [gemcitabine] + COC(=O)c1sccc1S(=O)(=O)Nc1ccc(Nc2ccccc2)cc1OC [GSK0660] (first compound 0.0004 µM, partner dose 1 µM) | 88.6 | 25.1 | 53.5 | 79.6 | 115 | 172 | 49.6 | 94.9 | 91.6 | 186 | 99.8 | 45.5 | 121 | 306 | 234 | 88.4
4 | C[C@@H](Oc1cc(-c2cnn(C3CCNCC3)c2)cnc1N)c1c(Cl)ccc(F)c1Cl [Crizotinib] + O=C1NC(=O)/C(=C/c2ccc(-c3ccc(F)cc3O)o2)S1 [AS252424] (first compound 0.2 µM, partner dose 1 µM) | 75.6 | 13 | 101 | 187 | 49.8 | 83.6 | 74 | 89 | 105 | 74.3 | 68.6 | 62.4 | 76 | 119 | 72.1 | 111
5 | CCCS(=O)(=O)Nc1ccc(F)c(C(=O)c2c[nH]c3ncc(Cl)cc23)c1F + O=C(Nc1ccccc1)c1cc([N+](=O)[O-])ccc1Cl [GW9662] (first compound 0.08 µM, partner dose 2 µM) | 181 | 23.1 | 91.2 | 90.1 | 261 | 106 | 36.5 | 124 | 111 | 19.4 | 95.5 | 156 | 197 | 163 | 64.9 | 28.3
6 | Nc1ccn([C@@H]2O[C@H](CO)[C@@H](O)C2(F)F)c(=O)n1 [gemcitabine] + COc1ccc(-c2ccc3c(N4CCOCC4)nc(N4C[C@@H](C)O[C@@H](C)C4)nc3n2)cc1CO [KU0063794] (first compound 0.0004 µM, partner dose 0.02 µM) | 74.7 | 13.4 | 71.6 | 76.4 | 639 | 241 | 244 | 121 | 120 | 137 | 143 | 265 | 291 | 99.8 | 152 | 120
7 | Nc1ccn([C@@H]2O[C@H](CO)[C@@H](O)C2(F)F)c(=O)n1 [gemcitabine] + COc1ccc2c(c1)CCC1C2CCC2(C)C(NCCCCCCN3C(=O)C=CC3=O)CCC12 [U73122] (first compound 0.0004 µM, partner dose 0.4 µM) | 63.6 | 21.8 | 27.8 | 335 | 86.9 | 202 | 209 | 156 | 113 | 53 | 199 | 88.4 | 56.1 | 192 | 137 | 57.1
8 | CO[C@H]1C[C@@H]2CC[C@@H](C)[C@@](O)(O2)C(=O)C(=O)N2CCCC[C@H]2C(=O)O[C@H]([C@H](C)C[C@@H]2CC[C@@H](OCCO)[C@H](OC)C2)CC(=O)[C@H](C)/C=C(\C)[C@@H](O)[C@@H](OC)C(=O)[C@H](C)C[C@H](C)/C=C/C=C/C=C/1C [everolimus] + COc1ccc(COc2ccc(Cc3cnc(N)nc3N)cc2OC)cc1 [GW2580] (first compound 0.02 µM, partner dose 1 µM) | 247 | 39.8 | 65.6 | 47 | 362 | 119 | 149 | 130 | 266 | 134 | 77 | 183 | 153 | 35 | 47.7 | 118
9 | O=C(O)[C@@H]1[O][Sb](=[O])([O][Sb]2(=[O])[O][C@H]([C@H](O)CO)[C@H](O)[C@H](C(=O)O)[O]2)[O][C@H]([C@H](O)CO)[C@@H]1O (stereo partly drawn) [stibogluconate] + CCc1ccc(CCOc2ccc(CC3SC(=O)NC3=O)cc2)nc1 [pioglitazone] (first compound 2 µM, partner dose 2 µM) | 56.4 | 805 | 244 | 74.5 | 62 | 78.9 | 86.1 | 479 | 63.6 | 72.9 | 167 | 160 | 46.2 | 110 | 134 | 61.3
10 | C=C(c1ccc(C(=O)O)cc1)c1cc2c(cc1C)C(C)(C)CCC2(C)C [Bexarotene] + CCCCCCCCCCCC1=C(O)C(=O)C=C(O)C1=O [Embelin] (first compound 2 µM, partner dose 1.2 µM) | 126 | 24.8 | 31.7 | 66 | 167 | 91.9 | 64.8 | 123 | 109 | 49.1 | 91.8 | 90.9 | 92.6 | 104 | 27.4 | 58.8
11 | Nc1nc(F)nc2c1ncn2[C@@H]1O[C@H](CO)[C@@H](O)[C@@H]1O [fludarabine] + COc1cc(N2CCC(N3CCN(C)CC3)CC2)ccc1Nc1ncc(Cl)c(Nc2ccccc2S(=O)(=O)C(C)C)n1 [NVP-TAE684] (first compound 0.2 µM, partner dose 0.08 µM) | 796 | 28.9 | 264 | 93.9 | 122 | 85.8 | 32 | 91.8 | 73.9 | 92.3 | 163 | 74.1 | 62 | 117 | 61.8 | 56.7
12 | CO[C@H]1C[C@@H]2CC[C@@H](C)[C@@](O)(O2)C(=O)C(=O)N2CCCC[C@H]2C(=O)O[C@H]([C@H](C)C[C@@H]2CC[C@@H](OCCO)[C@H](OC)C2)CC(=O)[C@H](C)/C=C(\C)[C@@H](O)[C@@H](OC)C(=O)[C@H](C)C[C@H](C)/C=C/C=C/C=C/1C [everolimus] + Oc1cc(-c2nc(-c3ccccc3)[nH]c2-c2ccncc2)ccc1Cl [L779450] (first compound 0.02 µM, partner dose 0.2 µM) | 124 | 15.1 | 145 | 93.9 | 187 | 92.8 | 89.6 | 81.3 | 115 | 88.8 | 73 | 82.9 | 219 | 80 | 108 | 57.2
13 | CCCS(=O)(=O)Nc1ccc(F)c(C(=O)c2c[nH]c3ncc(Cl)cc23)c1F + O=c1cc(-c2cccc3c2Sc2ccccc2S3)oc(N2CCOCC2)c1 [KU55933] (first compound 0.08 µM, partner dose 1 µM) | 343 | 36.7 | 85.7 | 110 | 18.8 | 127 | 81.1 | 81.8 | 99.3 | 42.3 | 86.7 | 186 | 94.1 | 21.7 | 34.1 | 61.7
14 | CC(C)C[C@H](NC(=O)[C@H](Cc1ccccc1)NC(=O)c1cnccn1)B(O)O [Bortezomib] + O=C(Nc1ccccc1)c1cc([N+](=O)[O-])ccc1Cl [GW9662] (first compound 0.001 µM, partner dose 2 µM) | 505 | 143 | 230 | 144 | 523 | 151 | 151 | 124 | 73.8 | 82.3 | 156 | 1120 | 236 | 52 | 146 | 111
15 | Cc1cc(Nc2cc(N3CCN(C)CC3)nc(/C=C/c3ccccc3)n2)n[nH]1 + Cc1cc([N+](=O)[O-])ccc1NS(=O)(=O)c1cc(Cl)ccc1Cl [FH535] (first compound 0.04 µM, partner dose 1 µM) | 69.4 | 31.9 | 108 | 42.3 | 245 | 123 | 630 | 217 | 124 | 179 | 52.1 | 112 | 47.2 | 119 | 86.4 | 170
16 | CO[C@H]1C[C@@H]2CC[C@@H](C)[C@@](O)(O2)C(=O)C(=O)N2CCCC[C@H]2C(=O)O[C@H]([C@H](C)C[C@@H]2CC[C@@H](OCCO)[C@H](OC)C2)CC(=O)[C@H](C)/C=C(\C)[C@@H](O)[C@@H](OC)C(=O)[C@H](C)C[C@H](C)/C=C/C=C/C=C/1C [everolimus] + CCCCCCCCCCCC1=C(O)C(=O)C=C(O)C1=O [Embelin] (first compound 0.02 µM, partner dose 1.2 µM) | 113 | 62.3 | 134 | 131 | 207 | 90.9 | 68.5 | 84.2 | 254 | 77.1 | 167 | 200 | 146 | 51.6 | 78.8 | 94.5
17 | Nc1ccn([C@@H]2O[C@H](CO)[C@@H](O)C2(F)F)c(=O)n1 [gemcitabine] + CCCCCCCCCCCC1=C(O)C(=O)C=C(O)C1=O [Embelin] (first compound 0.0004 µM, partner dose 1.2 µM) | 125 | 43.4 | 39.3 | 27 | 165 | 141 | 31.3 | 94.9 | 66.3 | 104 | 118 | 115 | 49.2 | 142 | 68.9 | 75.8
18 | CNC(=O)c1cc(Oc2ccc(NC(=O)Nc3ccc(Cl)c(C(F)(F)F)c3)cc2)ccn1 [sorafenib] + O=C(Nc1ccccc1)c1cc([N+](=O)[O-])ccc1Cl [GW9662] (first compound 0.4 µM, partner dose 2 µM) | 70 | 22.1 | 47.4 | 62.7 | 159 | 200 | 26.6 | 89.4 | 60.3 | 26.6 | 60.4 | 76 | 45.3 | 93.2 | 192 | 126

Record cards, as listed above. Values in the order: cleaved PARP positive nuclei fraction (501Mel) [%]	cleaved PARP positive nuclei fraction (A101D) [%]	cleaved PARP positive nuclei fraction (A2058) [%]	cleaved PARP positive nuclei fraction (C32) [%]	cleaved PARP positive nuclei fraction (CBRC008) [%]	cleaved PARP positive nuclei fraction (CBRC014) [%]	cleaved PARP positive nuclei fraction (CBRC016) [%]	cleaved PARP positive nuclei fraction (CBRC017) [%]	cleaved PARP positive nuclei fraction (COLO792) [%]	cleaved PARP positive nuclei fraction (COLO800) [%]	cleaved PARP positive nuclei fraction (COLO829) [%]	cleaved PARP positive nuclei fraction (G361) [%]	cleaved PARP positive nuclei fraction (IPC-298) [%]	cleaved PARP positive nuclei fraction (IST-MEL1) [%]	cleaved PARP positive nuclei fraction (LB2518-MEL) [%]	cleaved PARP positive nuclei fraction (LOXIMVI) [%]
CC(C)C[C@H](NC(=O)[C@H](Cc1ccccc1)NC(=O)c1cnccn1)B(O)O [Bortezomib] + O=C(Nc1ccccc1)c1cc([N+](=O)[O-])ccc1Cl [GW9662] (first compound 0.001 µM, partner dose 2 µM) is listed with 505	143	230	144	523	151	151	124	73.8	82.3	156	1120	236	52	146	111
CO[C@H]1C[C@@H]2CC[C@@H](C)[C@@](O)(O2)C(=O)C(=O)N2CCCC[C@H]2C(=O)O[C@H]([C@H](C)C[C@@H]2CC[C@@H](OCCO)[C@H](OC)C2)CC(=O)[C@H](C)/C=C(\C)[C@@H](O)[C@@H](OC)C(=O)[C@H](C)C[C@H](C)/C=C/C=C/C=C/1C [everolimus] + CCCCCCCCCCCC1=C(O)C(=O)C=C(O)C1=O [Embelin] (first compound 0.02 µM, partner dose 1.2 µM) is listed with 113	62.3	134	131	207	90.9	68.5	84.2	254	77.1	167	200	146	51.6	78.8	94.5
